# Measured values published in the supplement of paper PMC8728848.
# Some of the results follow.
# How the values were obtained:
# Assay in all cases: glycan array binding signal (z-score within array); higher = stronger binding
# Conditions in all cases: glycan notation: IUPAC condensed, linker removed
# [1] = biological target: Fuc(a1-2)[GalNAc(a1-3)]Gal(b1-3)GlcNAc(b1-3)GalNAc
# Summary of the method: (§1)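 Glycan array data came from 3228 arrays in the Consortium for Functional Glycomics database, and only arrays with an available protein sequence were kept. Glycan names were put into IUPAC-condensed notation, and columns mapping to the same glycan were averaged. The binding signal is a within-array Z-score, averaged across arrays of one protein sequence run at different concentrations or buffers and across linkers. A negative Z-score can be read as non-binding.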
# [2] = biological target: Fuc(a1-2)[GalNAc(a1-3)]Gal(b1-3)GlcNAc(b1-6)GalNAc
# Summary of the method: as §1
# [3] = biological target: Fuc(a1-2)[GalNAc(a1-3)]Gal(b1-4)Glc
# Summary of the method: as §1
# [4] = biological target: Fuc(a1-2)[GalNAc(a1-3)]Gal(b1-4)GlcNAc
# Summary of the method: as §1
# [5] = biological target: Fuc(a1-2)[GalNAc(a1-3)]Gal(b1-4)GlcNAc(b1-2)Man
# Summary of the method: as §1
# [6] = biological target: Fuc(a1-2)[GalNAc(a1-3)]Gal(b1-4)GlcNAc(b1-2)Man(a1-3)[Fuc(a1-2)[GalNAc(a1-3)]Gal(b1-4)GlcNAc(b1-2)Man(a1-6)]Man(b1-4)GlcNAc(b1-4)GlcNAc
# Summary of the method: as §1
# [7] = biological target: Fuc(a1-2)[GalNAc(a1-3)]Gal(b1-4)GlcNAc(b1-2)Man(a1-3)[Fuc(a1-2)[GalNAc(a1-3)]Gal(b1-4)GlcNAc(b1-2)Man(a1-6)]Man(b1-4)GlcNAc(b1-4)[Fuc(a1-6)]GlcNAc
# Summary of the method: as §1
# [8] = biological target: Fuc(a1-2)[GalNAc(a1-3)]Gal(b1-4)GlcNAc(b1-3)Gal(b1-4)GlcNAc
# Summary of the method: as §1
# [9] = biological target: Fuc(a1-2)[GalNAc(a1-3)]Gal(b1-4)GlcNAc(b1-3)Gal(b1-4)GlcNAc(b1-3)Gal(b1-4)GlcNAc
# Summary of the method: as §1
# [10] = biological target: Fuc(a1-2)[GalNAc(a1-3)]Gal(b1-4)GlcNAc(b1-3)GalNAc
# Summary of the method: as §1
# [11] = biological target: Fuc(a1-2)[GalNAc(a1-3)]Gal(b1-4)GlcNAc(b1-3)[Fuc(a1-2)[GalNAc(a1-3)]Gal(b1-4)GlcNAc(b1-6)]GalNAc
# Summary of the method: as §1
# [12] = biological target: Fuc(a1-2)[GalNAc(a1-3)]Gal(b1-4)GlcNAc(b1-6)GalNAc
# Summary of the method: as §1
# [13] = biological target: Fuc(a1-2)[GalNAc(a1-3)]Gal(b1-4)[Fuc(a1-3)]GlcNAc
# Summary of the method: as §1
# [14] = biological target: Fuc(a1-2)[GalNAc(a1-3)]Gal(b1-4)[Fuc(a1-3)]GlcNAc(b1-3)GalNAc
# Summary of the method: as §1
# [15] = biological target: Fuc(a1-2)[GalNAc(a1-4)]Gal(b1-4)GlcNAc
# Summary of the method: as §1
# [16] = biological target: Fuc(a1-2)[GalNAc(b1-3)]Gal
# Summary of the method: as §1
# Fuc(a1-3)GlcNAc = biological target: Fuc(a1-3)GlcNAc
# Summary of the method: as §1
# [17] = biological target: Fuc(a1-3)[Gal(b1-4)]Glc6S
# Summary of the method: as §1
# [18] = biological target: Fuc(a1-3)[Gal(b1-4)]GlcNAc
# Summary of the method: as §1
# [19] = biological target: Fuc(a1-3)[Gal(b1-4)]GlcNAc(b1-2)Man
# Summary of the method: as §1
# [20] = biological target: Fuc(a1-3)[Gal(b1-4)]GlcNAc(b1-2)Man(a1-3)[Fuc(a1-3)[Gal(b1-4)]GlcNAc(b1-2)Man(a1-6)]Man(b1-4)GlcNAc(b1-4)GlcNAc
# Summary of the method: as §1
# [21] = biological target: Fuc(a1-3)[Gal(b1-4)]GlcNAc(b1-2)Man(a1-3)[Fuc(a1-3)[Gal(b1-4)]GlcNAc(b1-2)Man(a1-6)]Man(b1-4)GlcNAc(b1-4)[Fuc(a1-6)]GlcNAc
# Summary of the method: as §1
# [22] = biological target: Fuc(a1-3)[Gal(b1-4)]GlcNAc(b1-3)Gal(b1-3)[Fuc(a1-4)]GlcNAc
# Summary of the method: as §1
# [23] = biological target: Fuc(a1-3)[Gal(b1-4)]GlcNAc(b1-3)Gal(b1-4)[Fuc(a1-3)]GlcNAc
# Summary of the method: as §1
# [24] = biological target: Fuc(a1-3)[Gal(b1-4)]GlcNAc(b1-3)Gal(b1-4)[Fuc(a1-3)]GlcNAc(b1-3)Gal(b1-4)[Fuc(a1-3)]GlcNAc
# Summary of the method: as §1
# [25] = biological target: Fuc(a1-3)[Gal(b1-4)]GlcNAc(b1-3)GalNAc
# Summary of the method: as §1
# [26] = biological target: Fuc(a1-3)[Gal(b1-4)]GlcNAc(b1-6)GalNAc
# Summary of the method: as §1
# [27] = biological target: Fuc(a1-3)[Gal(b1-4)]GlcNAc(b1-6)[Gal(b1-3)GlcNAc(b1-3)]Gal(b1-4)Glc
# Summary of the method: as §1
# [28] = biological target: Fuc(a1-3)[Gal(b1-4)]GlcNAc6S
# Summary of the method: as §1
# [29] = biological target: Fuc(a1-3)[Gal3S(b1-4)]Glc
# Summary of the method: as §1
# [30] = biological target: Fuc(a1-3)[Gal3S(b1-4)]GlcNAc
# Summary of the method: as §1
# [31] = biological target: Fuc(a1-3)[Gal3S(b1-4)]GlcNAc6S
# Summary of the method: as §1
# [32] = biological target: Fuc(a1-3)[GalNAc(b1-4)]GlcNAc
# Summary of the method: as §1
# [33] = biological target: Fuc(a1-3)[GalNAc(b1-4)]GlcNAc6S
# Summary of the method: as §1
# Fuc(a1-4)GlcNAc = biological target: Fuc(a1-4)GlcNAc
# Summary of the method: as §1
# Fuc(b1-3)GlcNAc = biological target: Fuc(b1-3)GlcNAc
# Summary of the method: as §1
# Gal(a1-2)Gal = biological target: Gal(a1-2)Gal
# Summary of the method: as §1
# Gal(a1-3)Gal = biological target: Gal(a1-3)Gal
# Summary of the method: as §1
# Gal(a1-3)Gal(b1-3)GlcNAc = biological target: Gal(a1-3)Gal(b1-3)GlcNAc
# Summary of the method: as §1
# [34] = biological target: Gal(a1-3)Gal(b1-3)GlcNAc(b1-2)Man
# Summary of the method: as §1
# [35] = biological target: Gal(a1-3)Gal(b1-3)GlcNAc(b1-2)Man(a1-3)[Gal(a1-3)Gal(b1-3)GlcNAc(b1-2)Man(a1-6)]Man(b1-4)GlcNAc(b1-4)GlcNAc
# Summary of the method: as §1
# [36] = biological target: Gal(a1-3)Gal(b1-3)GlcNAc(b1-3)GalNAc
# Summary of the method: as §1
# [37] = biological target: Gal(a1-3)Gal(b1-3)GlcNAc(b1-6)GalNAc
# Summary of the method: as §1
# [38] = biological target: Gal(a1-3)Gal(b1-3)[Fuc(a1-4)]GlcNAc(b1-2)Man(a1-3)[Gal(a1-3)Gal(b1-3)[Fuc(a1-4)]GlcNAc(b1-2)Man(a1-6)]Man(b1-4)GlcNAc(b1-4)GlcNAc
# Summary of the method: as §1
# Gal(a1-3)Gal(b1-4)Glc = biological target: Gal(a1-3)Gal(b1-4)Glc
# Summary of the method: as §1
binder,measurement,setting,value
"CBP21 (Serratia marcescens), O83009 (protein) MNKTSRTLLSLGLLSAAMFGVSQQANAHGYVESPASRAYQCKLQLNTQCGSVQYEPQSVEGLKGFPQAGPADGHIASADKSTFFELDQQTPTRWNKLNLKTGPNSFTWKLTARHSTTSWRYFITKPNWDASQPLTRASFDLTPFCQFNDGGAIPAAQVTHQCNIPADRSGSHVILAVWDIADTANAFYQAIDVNLSK",glycan array binding signal (z-score),[1],0.326
same,glycan array binding signal (z-score),[2],-1.9
same,glycan array binding signal (z-score),[3],-0.513
same,glycan array binding signal (z-score),[4],-0.947
same,glycan array binding signal (z-score),[5],-0.329
same,glycan array binding signal (z-score),[6],0.431
same,glycan array binding signal (z-score),[7],-0.038
same,glycan array binding signal (z-score),[8],1.41
same,glycan array binding signal (z-score),[9],0.507
same,glycan array binding signal (z-score),[10],-1.09
same,glycan array binding signal (z-score),[11],0.431
same,glycan array binding signal (z-score),[12],0.411
same,glycan array binding signal (z-score),[13],2.38
same,glycan array binding signal (z-score),[14],-1.22
same,glycan array binding signal (z-score),[15],-1.03
same,glycan array binding signal (z-score),[16],-0.158
same,glycan array binding signal (z-score),Fuc(a1-3)GlcNAc,-1.02
same,glycan array binding signal (z-score),[17],0.549
same,glycan array binding signal (z-score),[18],-1.06
same,glycan array binding signal (z-score),[19],-0.481
same,glycan array binding signal (z-score),[20],-0.009
same,glycan array binding signal (z-score),[21],0.55
same,glycan array binding signal (z-score),[22],-0.414
same,glycan array binding signal (z-score),[23],0.818
same,glycan array binding signal (z-score),[24],-1.15
same,glycan array binding signal (z-score),[25],0.402
same,glycan array binding signal (z-score),[26],-0.688
same,glycan array binding signal (z-score),[27],0.042
same,glycan array binding signal (z-score),[28],-0.134
same,glycan array binding signal (z-score),[29],-0.954
same,glycan array binding signal (z-score),[30],0.221
same,glycan array binding signal (z-score),[31],-0.484
same,glycan array binding signal (z-score),[32],1.56
same,glycan array binding signal (z-score),[33],0.894
same,glycan array binding signal (z-score),Fuc(a1-4)GlcNAc,-1.39
same,glycan array binding signal (z-score),Fuc(b1-3)GlcNAc,1.28
same,glycan array binding signal (z-score),Gal(a1-2)Gal,-2.54
same,glycan array binding signal (z-score),Gal(a1-3)Gal,-0.172
same,glycan array binding signal (z-score),Gal(a1-3)Gal(b1-3)GlcNAc,-0.788
same,glycan array binding signal (z-score),[34],-0.462
same,glycan array binding signal (z-score),[35],-0.517
same,glycan array binding signal (z-score),[36],-1.87
same,glycan array binding signal (z-score),[37],-0.703
same,glycan array binding signal (z-score),[38],1.67
same,glycan array binding signal (z-score),Gal(a1-3)Gal(b1-4)Glc,-0.085

# Fetched one by one from the entries so far (four):
binder,measurement,setting,value
"CBP21 (Serratia marcescens), O83009 (protein) MNKTSRTLLSLGLLSAAMFGVSQQANAHGYVESPASRAYQCKLQLNTQCGSVQYEPQSVEGLKGFPQAGPADGHIASADKSTFFELDQQTPTRWNKLNLKTGPNSFTWKLTARHSTTSWRYFITKPNWDASQPLTRASFDLTPFCQFNDGGAIPAAQVTHQCNIPADRSGSHVILAVWDIADTANAFYQAIDVNLSK",glycan array binding signal (z-score),[35],-0.517
same,glycan array binding signal (z-score),Fuc(b1-3)GlcNAc,1.28
same,glycan array binding signal (z-score),[20],-0.009
same,glycan array binding signal (z-score),[24],-1.15
